The record followed here is the supplement of paper PMC4962491.

± gives the standard deviation of the averaged measurements. The list shows a part of the results, in another mix than the full data. Single values are uncertain here, since repeats match poorly.

The test system of this test is FaDu. Kind of test: mitochondrial oxygen consumption rate normalised to cell number, Z score over the library; higher = higher oxygen consumption (negative = OCR reduction). Conditions: treatment time 24 h, assay medium: 5 mM galactose, 5 mM pyruvate, 4 mM glutamine. Here is the method: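 Primary screen: FaDu cells were incubated 24 h with Pharmakon 1600 / TDI oncology set compounds at 2 or 10 uM. Mitochondrial-specific OCR (basal minus 2 uM antimycin A) was measured on a Seahorse XF96 in assay medium with 5 mM galactose, 5 mM pyruvate and 4 mM glutamine, then corrected for Hoechst cell number and expressed as a Z score […]. Compounds that cut cell number by >66% were excluded. Two repeats.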

For `CC1C=CC=CCCC=CC=CC=CC=CC(OC2OC(C)C(O)C(N)C2O)CC2OC(O)(CC(O)C(O)CCC(O)CC(O)CC(O)CC(=O)OC(C)C(C)C1O)CC(O)C2C(=O)O` (stereo not drawn), the “mitochondrial oxygen consumption rate normalised” value (2 µM) was -0.0561 ± 0.16.

Regarding `CC[N+]1(C)CCCC(OC(=O)C(O)(c2ccccc2)c2ccccc2)C1` (stereo not drawn), the “mitochondrial oxygen consumption rate normalised” value (2 µM) is -0.0709 ± 0.41.

Take `c1ccc2c(c1)OCC(C1=NCCN1)O2` (stereo not drawn): the “mitochondrial oxygen consumption rate normalised” value (2 µM) is 0.0604 ± 0.02.

Consider `CC(C)c1cccc(C(C)C)c1O`, for which the “mitochondrial oxygen consumption rate normalised” value (2 µM) is -0.258 ± 0.92.

Turning to `Oc1ccc2c3c1O[C@H]1[C@@H](O)CC[C@@]4(O)[C@@H](C2)N(CC2CCC2)CC[C@]314`, the “mitochondrial oxygen consumption rate normalised” value (2 µM) was -0.644 ± 0.52.

Consider `CC(=O)O[C@H]1CC[C@@]2(C)C(=CC[C@@H]3[C@@H]2CC[C@]2(C)C(=O)CC[C@@H]32)C1`, for which, for the setting “2 µM”, the “mitochondrial oxygen consumption rate normalised” value was found to be 1.44 ± 0.05.

Consider `CN1C[C@H](CNC(=O)OCc2ccccc2)C[C@@H]2c3cccc4c3c(cn4C)C[C@H]21`, for which the “mitochondrial oxygen consumption rate normalised” value (2 µM) is 0.0951 ± 0.8.

As to `O=C(CCCN1CCC2(CC1)C(=O)NCN2c1ccccc1)c1ccc(F)cc1`, the “mitochondrial oxygen consumption rate normalised” value (2 µM) was found to be 0.165 ± 0.47.

For `O=[N+]([O-])O[C@H]1CO[C@H]2[C@@H]1OC[C@H]2O[N+](=O)[O-]`, under “2 µM”, the “mitochondrial oxygen consumption rate normalised” value was 0.0524 ± 1.2.

With `NCC1(CC(=O)O)CCCCC1`, the “mitochondrial oxygen consumption rate normalised” value (2 µM) is -0.221 ± 1.3.

Consider `O=c1cccc2n1C[C@@H]1CNC[C@H]2C1`, for which the “mitochondrial oxygen consumption rate normalised” value (2 µM) is -0.274 ± 0.54.

Turning to `CC(O)(CS(=O)(=O)c1ccc(F)cc1)C(=O)Nc1ccc(C#N)c(C(F)(F)F)c1` (stereo not drawn), the “mitochondrial oxygen consumption rate normalised” value (2 µM) came out at 0.021 ± 0.069.

`CCOC(=O)c1cncn1[C@H](C)c1ccccc1`: the “mitochondrial oxygen consumption rate normalised” value (2 µM) was 0.285 ± 0.28.

On to `CNC(=O)Oc1cccc2ccccc12`, for which the “mitochondrial oxygen consumption rate normalised” value (2 µM) was -0.435 ± 0.32.

Turning to `COc1ccc2c(c1OC)C(=O)O[C@@H]2[C@H]1c2cc3c(cc2CCN1C)OCO3`, the “mitochondrial oxygen consumption rate normalised” value (2 µM) is -0.212 ± 0.36.

As for `Cc1cc(C(C#N)c2ccc(Cl)cc2)c(Cl)cc1NC(=O)c1cc(I)cc(I)c1O` (stereo not drawn), the “mitochondrial oxygen consumption rate normalised” value (2 µM) is 1.1 ± 1.2.

For `O=C(O)c1nn(Cc2ccc(Cl)cc2Cl)c2ccccc12`, the “mitochondrial oxygen consumption rate normalised” value (2 µM) is 0.46 ± 0.18.

As for `C[C@@H]1C[C@@H]([C@H](O)CC2CC(=O)NC(=O)C2)C(=O)[C@@H](C)C1`, the “mitochondrial oxygen consumption rate normalised” value (2 µM) is 0.681 ± 0.78.

In the case of `CCC1(C2=NCCN2)Cc2ccccc2O1` (stereo not drawn), the “mitochondrial oxygen consumption rate normalised” value (2 µM) is 0.0626 ± 0.083.

As to `CC[C@@H](CO)NC(=O)[C@@H]1C=C2c3cccc4[nH]cc(c34)C[C@H]2N(C)C1`, under “2 µM”, the “mitochondrial oxygen consumption rate normalised” value is -0.807 ± 1.6.

Turning to `CCCCOC(=O)c1ccccc1C(=O)OCCCC`, under “2 µM”, the “mitochondrial oxygen consumption rate normalised” value was -0.381 ± 0.093.

Turning to `O=C1CCO1`, the “mitochondrial oxygen consumption rate normalised” value (2 µM) came out at 0.271 ± 0.26.

Regarding `CCC1(CC)C(=O)NC(=O)NC1=O`, the “mitochondrial oxygen consumption rate normalised” value (2 µM) was -0.704 ± 0.17.

As to `CC([C@H](O)c1ccccc1)N(C)C` (stereo partly drawn), where the note is “2 µM”, the “mitochondrial oxygen consumption rate normalised” value was -1.13 ± 0.32.

With `COc1ccc(OC)c(C(O)C(C)N)c1` (stereo not drawn), the “mitochondrial oxygen consumption rate normalised” value (2 µM) was -0.277 ± 0.036.

As to `C1CN1c1nc(N2CC2)nc(N2CC2)n1` [Triethylenemelamine], the “mitochondrial oxygen consumption rate normalised” value (2 µM) was 0.0985 ± 0.051.

With `CCC(=O)O[C@H]1CC[C@H]2[C@@H]3CCC4=CC(=O)CC[C@]4(C)[C@H]3CC[C@]12C`, the “mitochondrial oxygen consumption rate normalised” value (2 µM) was -0.966 ± 0.19.

On to `Oc1ccc(Cl)cc1Cc1cc(Cl)ccc1O`, for which the “mitochondrial oxygen consumption rate normalised” value (2 µM) came out at 1.71 ± 2.2.

Turning to `Cl[C@H]1[C@H](Cl)[C@@H](Cl)[C@@H](Cl)[C@H](Cl)[C@H]1Cl`, the “mitochondrial oxygen consumption rate normalised” value (2 µM) is -0.465 ± 0.86.

Regarding `CC(O)CN1CCN(CC(=O)[O-])CCN(CC(=O)[O-])CCN(CC(=O)[O-])CC1.[Gd+3]` (stereo not drawn), for the setting “2 µM”, the “mitochondrial oxygen consumption rate normalised” value is 0.117 ± 0.9.

As to `CCCC(C)(COC(N)=O)COC(=O)NC(C)C` (stereo not drawn), under “2 µM”, the “mitochondrial oxygen consumption rate normalised” value was -0.256 ± 1.4.

Turning to `COC(C)(C)CCC[C@H](C)C/C=C/C(C)=C/C(=O)OC(C)C`, the “mitochondrial oxygen consumption rate normalised” value by setting is: (2 µM) 0.0675 ± 0.28; (10 µM) 0.396 ± 0.11.

For `C[N+]1(C)CCCC(OC(=O)C(O)(c2ccccc2)c2ccccc2)C1` (stereo not drawn), the “mitochondrial oxygen consumption rate normalised” value (2 µM) is -1.16 ± 0.28.

As to `C#CC(C)(O)CC` (stereo not drawn), where the note is “2 µM”, the “mitochondrial oxygen consumption rate normalised” value came to 0.265 ± 1.8.

`N[C@@H]1C[C@H]1c1ccccc1.N[C@H]1C[C@@H]1c1ccccc1`: the “mitochondrial oxygen consumption rate normalised” value (2 µM) was -0.756 ± 0.18.

`CCOP(=S)(OCC)Oc1ccc2c(C)c(Cl)c(=O)oc2c1`: the “mitochondrial oxygen consumption rate normalised” value (2 µM) came out at 0.72 ± 1.2.

With `CCOc1cc(C=O)ccc1O`, the “mitochondrial oxygen consumption rate normalised” value (2 µM) was 0.328 ± 0.48.

In the case of `C=C1C[C@@H]2[C@H](CC[C@]3(C)C(=O)CC[C@@H]23)[C@@]2(C)C=CC(=O)C=C12` [Exemestane], for the setting “2 µM”, the “mitochondrial oxygen consumption rate normalised” value was 0.522 ± 0.39.

In the case of `C=C1C[C@@H]2[C@H](CC[C@]3(C)C(=O)CC[C@@H]23)[C@@]2(C)C=CC(=O)C=C12`, the “mitochondrial oxygen consumption rate normalised” value (2 µM) was -1.5 ± 1.2.

On to `CCCCCCCCCCCCCCCC[n+]1ccccc1`, for which, for the setting “2 µM”, the “mitochondrial oxygen consumption rate normalised” value was -6.43 ± 0.34.

For the compound `C=CCC1(C(C)CCC)C(=O)NC(=S)NC1=O` (stereo not drawn), the “mitochondrial oxygen consumption rate normalised” value (2 µM) is -0.207 ± 0.7.

In the case of `CCOP(=S)(OCC)Oc1nc(Cl)c(Cl)cc1Cl`, the “mitochondrial oxygen consumption rate normalised” value (2 µM) is -0.136 ± 0.082.

On to `c1ccc2c(c1)sc1ccccc12`, for which the “mitochondrial oxygen consumption rate normalised” value (2 µM) is -0.378 ± 0.72.

Consider `O=P1(N(CCCl)CCCl)NCCCO1` (stereo not drawn), for which the “mitochondrial oxygen consumption rate normalised” value (2 µM) is -0.277 ± 1.6.

On to `O=P1(N(CCCl)CCCl)NCCCO1` (stereo not drawn) [Cyclophosphamide], for which, under “2 µM”, the “mitochondrial oxygen consumption rate normalised” value turned out to be 1.12 ± 0.025.

Consider `CN1C(=O)CCS(=O)(=O)C1c1ccc(Cl)cc1` (stereo not drawn), for which the “mitochondrial oxygen consumption rate normalised” value (2 µM) was 0.149 ± 0.66.

Take `O=C(NC(O)C(Cl)(Cl)Cl)NC(O)C(Cl)(Cl)Cl` (stereo not drawn): the “mitochondrial oxygen consumption rate normalised” value (2 µM) worked out at 0.351 ± 0.63.

On to `CC(=O)NC1CCSC1=O` (stereo not drawn), for which the “mitochondrial oxygen consumption rate normalised” value reads like this: (2 µM) -1.06 ± 0.04; (10 µM) 0.219 ± 0.66.

For the compound `CNC(=O)Oc1ccccc1OC(C)C`, the “mitochondrial oxygen consumption rate normalised” value (2 µM) is -1 ± 0.054.

Turning to `CNCC(O)c1ccc(O)cc1` (stereo not drawn), the “mitochondrial oxygen consumption rate normalised” value (2 µM) is -0.607 ± 0.15.

With `CC(C)C[C@H]1C(=O)N2CCC[C@H]2[C@]2(O)O[C@](NC(=O)[C@@H]3C=C4c5cccc6[nH]c(Br)c(c56)C[C@H]4N(C)C3)(C(C)C)C(=O)N12`, the “mitochondrial oxygen consumption rate normalised” value (2 µM) was -0.175 ± 0.089.
